The supplement of paper PMC10849652
The list shows a part of the results.

Sequences of proteins named here, by UniProt entry; tags and fusion partners are left off. A change or cut given only in a name is not applied to a line headed by its entry.
UniProt Q9H4G4: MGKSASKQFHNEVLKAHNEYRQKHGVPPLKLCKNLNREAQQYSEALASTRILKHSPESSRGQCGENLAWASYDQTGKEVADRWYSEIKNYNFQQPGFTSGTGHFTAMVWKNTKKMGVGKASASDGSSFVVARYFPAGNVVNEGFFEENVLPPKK
UniProt Q9UHW5, whole entry, looked up: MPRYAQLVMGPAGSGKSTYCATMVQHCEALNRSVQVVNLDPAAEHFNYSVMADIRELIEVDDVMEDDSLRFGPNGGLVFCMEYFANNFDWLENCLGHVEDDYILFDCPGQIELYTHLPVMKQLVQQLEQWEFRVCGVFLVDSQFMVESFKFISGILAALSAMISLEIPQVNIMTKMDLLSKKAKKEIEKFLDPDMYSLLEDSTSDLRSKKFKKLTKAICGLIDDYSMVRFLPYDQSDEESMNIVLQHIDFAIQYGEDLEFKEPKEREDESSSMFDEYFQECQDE
UniProt Q5T3I0: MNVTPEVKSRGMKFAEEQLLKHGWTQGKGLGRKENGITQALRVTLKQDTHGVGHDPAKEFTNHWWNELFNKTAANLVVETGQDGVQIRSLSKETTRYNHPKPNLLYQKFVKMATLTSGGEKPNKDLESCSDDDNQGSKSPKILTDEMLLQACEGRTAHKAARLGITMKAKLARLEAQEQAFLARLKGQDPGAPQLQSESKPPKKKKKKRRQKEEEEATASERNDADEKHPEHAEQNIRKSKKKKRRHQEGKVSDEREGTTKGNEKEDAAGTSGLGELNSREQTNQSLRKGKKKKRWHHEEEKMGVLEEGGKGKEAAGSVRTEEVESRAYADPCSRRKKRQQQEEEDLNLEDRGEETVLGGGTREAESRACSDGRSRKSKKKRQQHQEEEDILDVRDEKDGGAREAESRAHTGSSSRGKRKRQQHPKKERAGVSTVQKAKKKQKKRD
UniProt B7ZAQ6: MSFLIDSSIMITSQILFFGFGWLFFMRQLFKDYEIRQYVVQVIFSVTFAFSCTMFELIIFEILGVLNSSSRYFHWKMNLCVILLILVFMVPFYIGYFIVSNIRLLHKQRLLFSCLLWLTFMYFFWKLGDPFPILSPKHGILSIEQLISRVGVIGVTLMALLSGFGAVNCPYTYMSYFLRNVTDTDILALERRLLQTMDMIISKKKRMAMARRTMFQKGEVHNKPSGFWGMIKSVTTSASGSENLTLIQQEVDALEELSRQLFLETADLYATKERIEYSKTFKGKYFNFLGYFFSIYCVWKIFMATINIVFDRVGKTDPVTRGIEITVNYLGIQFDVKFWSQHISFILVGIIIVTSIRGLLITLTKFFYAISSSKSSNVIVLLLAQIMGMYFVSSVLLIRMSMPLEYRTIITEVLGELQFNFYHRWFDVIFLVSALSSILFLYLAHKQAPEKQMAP
UniProt Q9P107: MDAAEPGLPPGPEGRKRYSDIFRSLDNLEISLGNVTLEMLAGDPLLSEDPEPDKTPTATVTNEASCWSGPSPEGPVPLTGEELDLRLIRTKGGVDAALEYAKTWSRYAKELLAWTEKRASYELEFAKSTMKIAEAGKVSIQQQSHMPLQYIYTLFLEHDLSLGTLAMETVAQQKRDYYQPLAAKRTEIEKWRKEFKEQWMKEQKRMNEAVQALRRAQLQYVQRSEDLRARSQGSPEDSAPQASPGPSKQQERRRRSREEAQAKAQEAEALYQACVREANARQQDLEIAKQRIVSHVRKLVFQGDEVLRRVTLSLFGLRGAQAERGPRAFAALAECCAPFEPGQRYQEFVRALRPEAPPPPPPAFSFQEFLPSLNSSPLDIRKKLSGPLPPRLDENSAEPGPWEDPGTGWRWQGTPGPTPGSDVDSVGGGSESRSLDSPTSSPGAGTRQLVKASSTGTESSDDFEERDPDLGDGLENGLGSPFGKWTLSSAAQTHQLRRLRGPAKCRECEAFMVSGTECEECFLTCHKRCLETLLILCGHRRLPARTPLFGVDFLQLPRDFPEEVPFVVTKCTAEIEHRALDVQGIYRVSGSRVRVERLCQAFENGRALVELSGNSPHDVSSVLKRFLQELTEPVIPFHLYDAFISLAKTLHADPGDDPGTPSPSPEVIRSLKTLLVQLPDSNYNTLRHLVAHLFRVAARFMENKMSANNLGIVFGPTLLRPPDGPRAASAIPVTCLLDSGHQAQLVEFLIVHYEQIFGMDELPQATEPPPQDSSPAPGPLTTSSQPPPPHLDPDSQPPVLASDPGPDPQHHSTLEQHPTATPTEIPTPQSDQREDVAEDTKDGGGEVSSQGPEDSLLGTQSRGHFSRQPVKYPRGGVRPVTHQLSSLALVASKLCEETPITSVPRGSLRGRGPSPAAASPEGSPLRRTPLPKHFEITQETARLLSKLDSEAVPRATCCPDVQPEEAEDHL
UniProt P50148, whole entry, looked up: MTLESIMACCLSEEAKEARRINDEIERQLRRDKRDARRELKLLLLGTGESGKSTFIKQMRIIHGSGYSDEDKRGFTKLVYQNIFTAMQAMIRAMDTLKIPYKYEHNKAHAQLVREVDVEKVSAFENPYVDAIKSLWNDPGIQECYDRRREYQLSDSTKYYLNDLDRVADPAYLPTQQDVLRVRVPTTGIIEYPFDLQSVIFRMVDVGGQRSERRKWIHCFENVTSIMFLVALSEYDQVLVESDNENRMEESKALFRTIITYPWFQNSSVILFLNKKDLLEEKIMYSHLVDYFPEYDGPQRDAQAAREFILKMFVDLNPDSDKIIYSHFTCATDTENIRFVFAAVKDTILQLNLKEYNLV
UniProt P16520, whole entry, looked up: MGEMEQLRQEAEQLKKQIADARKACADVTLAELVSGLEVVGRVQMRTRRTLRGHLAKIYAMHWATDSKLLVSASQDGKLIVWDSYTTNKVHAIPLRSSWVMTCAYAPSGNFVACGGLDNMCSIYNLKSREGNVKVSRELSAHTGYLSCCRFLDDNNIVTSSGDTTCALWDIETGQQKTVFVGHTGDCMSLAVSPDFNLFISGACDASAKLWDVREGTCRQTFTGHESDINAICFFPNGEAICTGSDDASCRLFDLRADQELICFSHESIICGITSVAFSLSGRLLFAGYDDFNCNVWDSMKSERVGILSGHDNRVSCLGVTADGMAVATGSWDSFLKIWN
UniProt P63218: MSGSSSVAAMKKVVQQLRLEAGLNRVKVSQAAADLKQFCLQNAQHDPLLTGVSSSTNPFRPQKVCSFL
UniProt Q9NWU2, whole entry, looked up: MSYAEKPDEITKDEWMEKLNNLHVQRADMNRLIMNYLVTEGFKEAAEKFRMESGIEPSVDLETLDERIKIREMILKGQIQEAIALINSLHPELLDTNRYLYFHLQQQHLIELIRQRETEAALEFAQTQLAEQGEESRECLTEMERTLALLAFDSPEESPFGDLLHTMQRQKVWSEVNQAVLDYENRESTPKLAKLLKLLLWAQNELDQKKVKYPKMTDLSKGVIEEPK
UniProt Q86UL3: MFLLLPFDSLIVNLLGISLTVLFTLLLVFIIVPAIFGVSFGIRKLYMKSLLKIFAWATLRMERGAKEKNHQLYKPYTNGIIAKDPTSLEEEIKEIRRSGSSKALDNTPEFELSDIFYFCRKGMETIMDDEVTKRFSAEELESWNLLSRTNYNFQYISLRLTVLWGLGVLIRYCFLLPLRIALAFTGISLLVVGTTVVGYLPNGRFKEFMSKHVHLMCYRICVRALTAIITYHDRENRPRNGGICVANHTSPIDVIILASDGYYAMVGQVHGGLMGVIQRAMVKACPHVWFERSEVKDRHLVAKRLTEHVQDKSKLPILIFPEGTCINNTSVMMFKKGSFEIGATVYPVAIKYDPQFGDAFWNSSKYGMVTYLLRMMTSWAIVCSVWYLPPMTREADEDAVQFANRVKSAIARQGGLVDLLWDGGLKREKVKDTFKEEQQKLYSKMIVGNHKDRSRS
UniProt P16278: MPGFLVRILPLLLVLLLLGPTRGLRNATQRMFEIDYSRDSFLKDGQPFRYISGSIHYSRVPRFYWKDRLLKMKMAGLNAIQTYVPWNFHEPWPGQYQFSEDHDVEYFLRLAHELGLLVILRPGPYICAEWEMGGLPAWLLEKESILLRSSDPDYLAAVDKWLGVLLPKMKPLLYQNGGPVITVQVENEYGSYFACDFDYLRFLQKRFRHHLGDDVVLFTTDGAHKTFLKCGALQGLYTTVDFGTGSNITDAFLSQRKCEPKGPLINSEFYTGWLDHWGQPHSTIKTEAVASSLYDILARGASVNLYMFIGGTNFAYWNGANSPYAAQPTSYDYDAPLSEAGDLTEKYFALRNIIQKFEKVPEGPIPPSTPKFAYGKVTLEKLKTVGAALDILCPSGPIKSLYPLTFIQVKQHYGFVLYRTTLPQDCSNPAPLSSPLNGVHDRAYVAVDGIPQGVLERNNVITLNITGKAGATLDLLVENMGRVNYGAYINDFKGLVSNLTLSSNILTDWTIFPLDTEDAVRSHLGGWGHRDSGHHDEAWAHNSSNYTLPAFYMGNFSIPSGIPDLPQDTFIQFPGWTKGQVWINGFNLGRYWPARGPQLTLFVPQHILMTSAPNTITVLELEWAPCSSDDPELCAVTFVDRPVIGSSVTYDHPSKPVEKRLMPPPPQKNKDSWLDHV
UniProt A6NDN3: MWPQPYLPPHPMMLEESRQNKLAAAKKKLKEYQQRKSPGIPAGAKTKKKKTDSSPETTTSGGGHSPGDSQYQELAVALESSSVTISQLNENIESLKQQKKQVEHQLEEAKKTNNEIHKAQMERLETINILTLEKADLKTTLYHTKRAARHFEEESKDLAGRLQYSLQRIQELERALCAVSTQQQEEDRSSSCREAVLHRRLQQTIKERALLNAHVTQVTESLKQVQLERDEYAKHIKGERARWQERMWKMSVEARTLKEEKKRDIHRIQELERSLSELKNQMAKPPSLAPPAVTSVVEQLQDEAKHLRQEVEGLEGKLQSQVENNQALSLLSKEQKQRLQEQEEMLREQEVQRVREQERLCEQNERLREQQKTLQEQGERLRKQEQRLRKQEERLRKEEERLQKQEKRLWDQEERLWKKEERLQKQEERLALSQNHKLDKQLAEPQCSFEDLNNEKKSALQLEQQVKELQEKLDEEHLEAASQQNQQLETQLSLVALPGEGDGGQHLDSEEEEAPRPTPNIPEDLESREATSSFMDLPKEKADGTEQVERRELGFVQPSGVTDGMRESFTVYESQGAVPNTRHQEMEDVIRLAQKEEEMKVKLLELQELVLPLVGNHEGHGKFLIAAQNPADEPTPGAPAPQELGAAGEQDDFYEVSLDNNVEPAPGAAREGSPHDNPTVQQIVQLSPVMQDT
UniProt P46926: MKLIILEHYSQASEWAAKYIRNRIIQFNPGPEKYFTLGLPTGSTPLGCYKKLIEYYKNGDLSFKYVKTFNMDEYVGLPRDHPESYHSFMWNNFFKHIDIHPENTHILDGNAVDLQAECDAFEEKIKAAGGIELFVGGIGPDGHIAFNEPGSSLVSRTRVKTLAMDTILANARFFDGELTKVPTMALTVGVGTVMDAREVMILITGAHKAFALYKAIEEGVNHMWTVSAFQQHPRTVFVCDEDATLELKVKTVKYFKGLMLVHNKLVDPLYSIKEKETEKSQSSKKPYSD
UniProt Q5VW38: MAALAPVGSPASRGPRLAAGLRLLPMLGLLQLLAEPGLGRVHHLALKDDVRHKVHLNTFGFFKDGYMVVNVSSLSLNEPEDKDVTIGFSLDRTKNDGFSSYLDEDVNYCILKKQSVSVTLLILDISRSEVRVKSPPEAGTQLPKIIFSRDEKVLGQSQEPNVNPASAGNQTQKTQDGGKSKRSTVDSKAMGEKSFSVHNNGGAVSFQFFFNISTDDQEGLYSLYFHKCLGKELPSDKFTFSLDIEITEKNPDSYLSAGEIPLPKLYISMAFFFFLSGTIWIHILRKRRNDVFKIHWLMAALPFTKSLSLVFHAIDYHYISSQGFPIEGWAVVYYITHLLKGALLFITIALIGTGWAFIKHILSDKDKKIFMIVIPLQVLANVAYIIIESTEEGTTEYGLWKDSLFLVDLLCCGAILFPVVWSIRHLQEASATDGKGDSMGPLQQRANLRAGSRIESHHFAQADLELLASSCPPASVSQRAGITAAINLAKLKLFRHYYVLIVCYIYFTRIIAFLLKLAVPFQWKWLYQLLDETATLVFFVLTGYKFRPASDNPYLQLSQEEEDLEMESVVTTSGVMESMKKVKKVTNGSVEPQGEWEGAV
UniProt Q86SX6: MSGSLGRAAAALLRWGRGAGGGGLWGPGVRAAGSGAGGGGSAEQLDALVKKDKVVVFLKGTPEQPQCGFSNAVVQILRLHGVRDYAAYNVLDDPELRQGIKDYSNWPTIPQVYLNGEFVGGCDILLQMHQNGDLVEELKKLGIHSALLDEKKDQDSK
UniProt O60547: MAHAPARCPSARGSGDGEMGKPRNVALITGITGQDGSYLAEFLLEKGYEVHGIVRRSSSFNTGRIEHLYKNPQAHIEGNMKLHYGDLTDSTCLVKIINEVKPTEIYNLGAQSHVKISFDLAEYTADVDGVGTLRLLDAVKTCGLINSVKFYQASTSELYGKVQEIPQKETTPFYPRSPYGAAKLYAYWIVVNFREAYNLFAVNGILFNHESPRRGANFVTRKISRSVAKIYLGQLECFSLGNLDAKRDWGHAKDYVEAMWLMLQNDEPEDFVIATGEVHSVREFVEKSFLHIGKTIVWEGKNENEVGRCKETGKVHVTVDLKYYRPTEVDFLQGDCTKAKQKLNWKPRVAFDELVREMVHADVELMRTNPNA

How the values were obtained:
Assay in all cases: log2 fold change, soluble protein after heating vs DMSO (PISA); higher = thermal stabilisation; K562 lysate, 10 uM; active = over 0.2 and 3.5 SD of the protein, either way, in both replicates (recomputed)
[1] = compound: CN1CC[C@H](c2c(O)cc(O)c3c(=O)cc(-c4ccccc4Cl)oc23)[C@H](O)C1 [alvocidib]
Outline: (§1)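 Quantification was by TMTpro 16plex LC-MS/MS with equalised channel sums, applied to the supernatant after 21,000xg for 90 min. Samples were crude K562 extract at 1 mg/mL protein in PBS pH 7.4 with 1 mM MgCl2, treated with 10 μM compound for 30 min, heated for 3 min across 48°C-58°C, pooled and brought to 0.5% NP-40 at 4°C. Values are log-two fold changes in thermal stability relative to solvent controls, from duplicates.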

[2] = compound: CN1CCc2c(c3ccccc3n2Cc2ccc(C(=O)NO)cc2)C1 [Tubastatin A]
Outline: as §1

[3] = compound: CNC(=O)C1=CC=CC=C1NC2=NC(=NC=C2Cl)NC3=C(C=C(C=C3)N4CCOCC4)OC
Outline: as §1

[4] = compound: CNC(=O)c1ccc(Nc2ncc(C(F)(F)F)c(NCc3nccnc3N(C)S(C)(=O)=O)n2)cc1 [defactinib]
Outline: as §1

[5] = compound: CNc1nc(-c2ccc3c(N)n[nH]c3c2)cc(N2C[C@@H](C(=O)NC3CCCCC3)CC[C@H]2C)n1
Outline: as §1

[6] = compound: COC(=O)N[C@@H](C)CNc1nccc(-c2cn(C(C)C)nc2-c2cc(Cl)cc(NS(C)(=O)=O)c2F)n1 [encorafenib]
Outline: as §1

[7] = compound: COC(=O)[C@H](CCSC)NC(=O)C1=C(C=C(C=C1)NC[C@H](CS)N)C2=CC=CC=C2
Outline: as §1

[8] = compound: COc1cc(Nc2ncc3c(n2)-c2ccc(Cl)cc2C(c2c(F)cccc2OC)=NC3)ccc1C(=O)O [alisertib]
Outline: as §1

[9] = compound: COc1cc2nc(-c3cc(F)ccc3O)nc(N[C@@H]3CNC[C@H]3C(C)(C)O)c2cc1OC
Outline: as §1

[10] = compound: COc1cc2ncnc(Nc3ccc(F)c(Cl)c3)c2cc1OCCCN1CCOCC1 [gefitinib]
Outline: as §1

Row | Target | log2 fold change [1] | log2 fold change [2] | log2 fold change [3] | log2 fold change [4] | log2 fold change [5] | log2 fold change [6] | log2 fold change [7] | log2 fold change [8] | log2 fold change [9] | log2 fold change [10]
1 | GLIPR2 (UniProt Q9H4G4) | inactive: 0.04 | inactive: 0.004 | inactive: 0.041 | inactive: 0.018 | inactive: 0.065 | inactive: 0.012 | inactive: -0.011 | inactive: 0.018 | inactive: -0.023 | inactive: 0.029
2 | GPAA1 (UniProt O43292) | inactive: -0.013 | inactive: 0.003 | inactive: 0.007 | inactive: -0.014 | inactive: 0.039 | inactive: -0.018 | inactive: -0.004 | inactive: 0.053 | inactive: -0.013 | inactive: 0.015
3 | GNS (UniProt P15586) | inactive: -0.022 | inactive: 0.057 | inactive: 0.012 | inactive: -0.038 | inactive: 0 | inactive: 0.007 | inactive: -0.025 | inactive: 0 | inactive: 0.001 | inactive: -0.017
4 | GPD1 (UniProt P21695) | inactive: 0.026 | inactive: 0.145 | inactive: -0.065 | inactive: -0.165 | inactive: 0.306 | inactive: -0.048 | inactive: 0.091 | inactive: 0.177 | inactive: 0.187 | inactive: -0.059
5 | GPN3 isoform 2 (UniProt Q9UHW5) | inactive: -0.077 | inactive: 0.005 | inactive: -0.069 | inactive: 0.08 | inactive: -0.014 | inactive: 0.004 | inactive: -0.158 | inactive: -0.008 | inactive: 0.004 | inactive: 0.002
6 | GPATCH4 isoform 3 (UniProt Q5T3I0) | inactive: 0.003 | inactive: -0.152 | inactive: 0.128 | inactive: 0.035 | inactive: 0.047 | inactive: 0.18 | inactive: -0.019 | inactive: 0.029 | inactive: -0.059 | inactive: 0.043
7 | GPR89A (UniProt B7ZAQ6) | inactive: 0.02 | inactive: -0.01 | inactive: -0.202 | inactive: -0.023 | inactive: -0.092 | inactive: 0.016 | inactive: -0.09 | inactive: 0.04 | inactive: -0.151 | inactive: 0
8 | GMIP (UniProt Q9P107) | inactive: -0.078 | inactive: -0.139 | inactive: 0.088 | inactive: 0.033 | inactive: -0.01 | inactive: 0.061 | inactive: 0.031 | inactive: -0.014 | inactive: -0.078 | inactive: 0.11
9 | GNAQ (UniProt P50148) | inactive: 0.009 | inactive: -0.014 | inactive: 0.015 | inactive: 0.026 | inactive: -0.064 | inactive: -0.038 | inactive: 0.028 | inactive: -0.081 | inactive: -0.008 | inactive: 0.072
10 | GLUD1 (UniProt P00367) | inactive: 0.007 | inactive: 0.038 | inactive: 0.011 | inactive: -0.013 | inactive: -0.033 | inactive: -0.014 | inactive: 0.001 | inactive: -0.003 | inactive: -0.028 | inactive: -0.009
11 | GNAS (UniProt Q5JWF2) | inactive: 0.07 | inactive: 0.008 | inactive: -0.038 | inactive: -0.025 | inactive: -0.066 | inactive: -0.025 | inactive: -0.021 | inactive: -0.015 | inactive: 0.011 | inactive: 0.006
12 | GNB3 (UniProt P16520) | inactive: -0.027 | inactive: 0.147 | inactive: -0.067 | inactive: -0.032 | inactive: 0.174 | inactive: -0.042 | inactive: -0.1 | inactive: 0.018 | inactive: 0.038 | inactive: 0.155
13 | GPATCH11 (UniProt Q8N954) | inactive: -0.048 | inactive: 0.074 | inactive: -0.015 | inactive: 0.008 | inactive: 0.07 | inactive: 0.018 | inactive: -0.046 | inactive: -0.025 | inactive: 0.007 | inactive: 0
14 | GNG5 (UniProt P63218) | inactive: 0.216 | inactive: 0.062 | inactive: 0.052 | inactive: 0.124 | inactive: -0.018 | inactive: 0.041 | inactive: -0.063 | inactive: -0.049 | inactive: -0.026 | inactive: -0.101
15 | GOLGA2 (UniProt Q08379) | inactive: -0.011 | inactive: -0.005 | inactive: 0.001 | inactive: 0.013 | inactive: -0.024 | inactive: -0.024 | inactive: -0.006 | inactive: 0.03 | inactive: 0.05 | inactive: -0.003
16 | GOLGA3 (UniProt Q08378) | inactive: 0.007 | inactive: 0.02 | inactive: 0.015 | inactive: 0.008 | inactive: 0.058 | inactive: -0.005 | inactive: -0.019 | inactive: -0.007 | inactive: 0.004 | inactive: -0.011
17 | GLB1L2 (UniProt Q8IW92) | inactive: -0.087 | inactive: 0.069 | inactive: 0.088 | inactive: -0.014 | inactive: 0.151 | inactive: -0.016 | inactive: -0.085 | inactive: 0.033 | inactive: -0.008 | inactive: -0.079
18 | GID8 (UniProt Q9NWU2) | inactive: 0.004 | inactive: -0.028 | inactive: 0.031 | inactive: 0.042 | inactive: 0.04 | inactive: 0.053 | inactive: -0.055 | inactive: 0.026 | inactive: 0.024 | inactive: -0.067
19 | GGNBP2 (UniProt Q9H3C7) | inactive: -0.117 | inactive: -0.128 | inactive: 0.078 | inactive: 0.039 | inactive: -0.034 | inactive: -0.02 | inactive: 0.047 | inactive: -0.034 | inactive: 0.046 | inactive: -0.019
20 | GOLGA7 (UniProt Q7Z5G4) | inactive: -0.033 | inactive: -0.01 | inactive: -0.022 | inactive: 0.016 | inactive: -0.064 | inactive: -0.002 | inactive: -0.042 | inactive: 0.043 | inactive: 0 | inactive: 0.049
21 | GPAT4 (UniProt Q86UL3) | inactive: -0.009 | inactive: 0.063 | inactive: 0.019 | inactive: -0.005 | inactive: -0.028 | inactive: 0.028 | inactive: -0.025 | inactive: -0.005 | inactive: -0.003 | inactive: 0.012
22 | GLB1 (UniProt P16278) | inactive: -0.042 | inactive: -0.032 | inactive: 0.005 | inactive: 0.006 | inactive: 0.055 | inactive: -0.036 | active: 0.327 | inactive: 0.022 | inactive: 0.007 | inactive: -0.015
23 | GNL3L (UniProt Q9NVN8) | inactive: -0.004 | inactive: -0.061 | inactive: 0.023 | inactive: 0.033 | inactive: 0.089 | inactive: 0.241 | inactive: 0.108 | inactive: 0.026 | inactive: 0.096 | inactive: -0.021
24 | GOLGA6B (UniProt A6NDN3) | inactive: -0.019 | inactive: -0.054 | inactive: -0.002 | inactive: 0.018 | inactive: -0.086 | inactive: -0.048 | inactive: -0.053 | inactive: -0.074 | inactive: 0.043 | inactive: 0.065
25 | GNPDA1 (UniProt P46926) | inactive: -0.02 | inactive: 0.032 | inactive: -0.001 | inactive: -0.003 | inactive: 0.059 | inactive: 0.017 | inactive: -0.053 | inactive: 0.001 | inactive: -0.012 | inactive: 0.01
26 | GPR107 isoform 2 (UniProt Q5VW38) | inactive: 0.003 | inactive: -0.018 | inactive: 0.012 | inactive: 0.042 | inactive: 0.046 | inactive: 0.034 | inactive: -0.034 | inactive: -0.031 | inactive: 0.03 | inactive: 0.132
27 | GPI (UniProt P06744) | inactive: 0.017 | inactive: 0.028 | inactive: -0.028 | inactive: -0.027 | inactive: -0.073 | inactive: -0.029 | inactive: 0.001 | inactive: 0.011 | inactive: -0.004 | inactive: 0.001
28 | GLRX5 (UniProt Q86SX6) | inactive: 0.012 | inactive: 0.044 | inactive: -0.017 | inactive: 0.042 | inactive: 0.081 | inactive: 0.006 | inactive: -0.062 | inactive: 0.023 | inactive: -0.05 | inactive: -0.141
29 | GMDS (UniProt O60547) | inactive: 0.036 | inactive: -0.057 | inactive: -0.017 | inactive: 0.042 | inactive: 0.003 | inactive: -0.059 | inactive: 0.123 | inactive: 0.016 | inactive: 0.023 | inactive: -0.012
30 | GLOD4 isoform 2 (UniProt Q9HC38) | inactive: 0.007 | inactive: 0.046 | inactive: -0.015 | inactive: -0.033 | inactive: -0.007 | inactive: -0.034 | inactive: 0.025 | inactive: 0 | inactive: 0.002 | inactive: 0.014

Full records as entered above. Order of values: log2 fold change [1]	log2 fold change [2]	log2 fold change [3]	log2 fold change [4]	log2 fold change [5]	log2 fold change [6]	log2 fold change [7]	log2 fold change [8]	log2 fold change [9]	log2 fold change [10]
GPATCH11 (UniProt Q8N954) is listed as inactive: -0.048	inactive: 0.074	inactive: -0.015	inactive: 0.008	inactive: 0.07	inactive: 0.018	inactive: -0.046	inactive: -0.025	inactive: 0.007	inactive: 0
GLB1 (UniProt P16278) is listed as inactive: -0.042	inactive: -0.032	inactive: 0.005	inactive: 0.006	inactive: 0.055	inactive: -0.036	active: 0.327	inactive: 0.022	inactive: 0.007	inactive: -0.015
